Data published in paper PMC5996148.
The list shows a part of the results.

How the values were obtained:
Test in all cases: protein microarray (ProtoArray v5.0), streptavidin-Alexa Fluor 647
Details in all cases: 3'-biotin; 20 mM Tris (pH 7.5), 5 mM MgCl2, 100 mM KCl, 0.1% Tween-20, A/T-rich and random oligonucleotide blockers; temperature not stated; high values mean tight binding
[1] = test system: Peptidase inhibitor 16 (human)
[2] = test system: Peptidyl-prolyl cis-trans isomerase-like 3 (human)
[3] = test system: Peptidyl-tRNA hydrolase 2, mitochondrial (human)
[4] = test system: Phosphatase and actin regulator 4 (human)
[5] = test system: Phosphatidylinositol-3,4,5-trisphosphate 3-phosphatase and dual-specificity protein phosphatase PTEN (human)
[6] = test system: Phosphoacetylglucosamine mutase (human)
[7] = test system: Phosphoglucomutase-2 (human)
[8] = test system: Phosphoglycerate mutase 1 (human)
[9] = test system: Phospholipase DDHD2 (human)
[10] = test system: Phospholysine phosphohistidine inorganic pyrophosphate phosphatase (human)

## GGTGACAGGGGTATGGGGAGGGG [G4-2 biotinylated (Ct1)]
[1]
  binding signal: -0.384 z-score
[2]
  binding signal: -0.387 z-score
[3]
  binding signal: 3.46 z-score
[4]
  binding signal: -0.367 z-score
[5]
  binding signal: -0.388 z-score
[6]
  binding signal: -0.394 z-score
[7]
  binding signal: -0.397 z-score
[8]
  binding signal: -0.378 z-score
[9]
  binding signal: -0.391 z-score
[10]
  binding signal: -0.392 z-score
